Test results from PubChem BioAssay AID540276 (National Center for Advancing Translational Sciences (NCATS), 2011).
Several values for one entry are separate records, joined by “and”; a condition that tells them apart may be missing. Equal values may be shown once. About 5,400 (1.8%) of roughly 300,000 compounds were called active. Inconclusive results, whose numbers are uncertain, are shown with a selection of clear calls. Calls come from the whole dose curve; tested in HEK293 cells. Potencies beside an inconclusive call are fits to weak or partial responses and may not hold up.

assay: qHTS for inhibitors of binding or entry into cells for Marburg Virus; settings: Marburg virus pseudotyped entry inhibition, cell reporter; activity change, negative = inhibition: at 37.8 µM (top of the series) unless noted
% is set by controls: 0 for no effect and ±100 for the full control effect; potency is the fitted concentration of half-maximal effect.

Row | SMILES | Potency | activity change, negative = inhibition
1 | NC(=O)NC(=O)C(Nc1ccc(N2CCCCC2)cc1)c1ccccc1 (stereo not given) | inconclusive: 14.1 µM [activator, partial curve, poor fit] | –
2 | Cc1ccc(NC(=O)NCc2c(C)nn(C)c2C)cc1Cl | – | inactive: 13.8%
3 | O=C(Cc1ccc(-c2ccccc2)cc1)NCc1ccccc1 | – | inactive: -6.42%
4 | CC(C)(C)NC[C@H](O)COc1cccc2[nH]c(=O)[nH]c12 | inactive | –
5 | CC(=O)Nc1ccc(Nc2cc(C)nc3c(-c4ccc(Cl)cc4)c(C)nn23)cc1 | inconclusive: 35.5 µM [inhibitor, partial curve, poor fit] | –
6 | COc1cccc2cc(C(=O)N3CCc4ccccc4C3)c(=O)oc12 | – | inactive: 11%
7 | Brc1ccccc1-c1nnc(CSc2nnnn2-c2ccccc2)o1 | – | inactive: 21.6%
8 | CC(CN1CCOCC1)OC(=O)c1ccccc1Cl (stereo not given) | inconclusive: 2.24 µM [inhibitor, single point] | –
9 | Cc1ccc(/C=C/c2nnc(-c3ccc(C)cc3)o2)cc1 | – | inactive: 11.6%
10 | O=C(COC(=O)c1ccc(Br)o1)Nc1ccc(S(=O)(=O)N2CCCC2)cc1 | inconclusive: 0.082 µM [inhibitor, partial curve, poor fit] | –
11 | CCOC(=O)c1c(-c2ccc(C)o2)csc1NC(=O)CN1CCN(CC)CC1 | inactive and inconclusive: 16.4 µM [inhibitor, partial curve, poor fit] | –
12 | CSc1ccc(CN(C)C(=O)C(Cc2ccccc2)NC(=O)c2ccccc2)cc1 (stereo not given) | inconclusive: 14.1 µM [inhibitor, single point] | –
13 | CCCCNC(=O)CSc1nc2ccccc2c(=O)n1CCNC(C)=O | inconclusive: 2.31 µM [inhibitor, single point] | –
14 | CN1CC(C(=O)c2ccccc2)C(c2ccccc2)C1 (stereo not given) | inconclusive: 15.8 µM [inhibitor, single point] | –
15 | COc1ccccc1-c1nc(SCC(=O)N2CCOCC2)n[nH]1 | inconclusive: 1.41 µM [inhibitor, full curve, poor fit] | –
16 | CCn1c(=O)cc(SCC(=O)N2CCN(Cc3ccc4c(c3)OCO4)CC2)c2ccccc21 | – | inactive: 0.559%
17 | CC(=O)CC(=O)Nc1ccc(C(N)=O)cc1 | inconclusive: 7.94 µM [activator, partial curve, poor fit] | –
18 | COc1ccc(Cn2ccnc2SCC(=O)NC2CCCCC2)cc1 | – | inactive: -15%
19 | Cc1cc(C)cc(NS(=O)(=O)c2csc(C(N)=O)c2)c1 | inconclusive: 35.5 µM [inhibitor, partial curve, poor fit] | –
20 | CCOC(=O)c1ccc(-c2c(-c3ccccc3OC)sc3cc4c(cc23)OCO4)cc1F | – | inactive: 0%

Entries of single compounds from above:
`COc1ccc(Cn2ccnc2SCC(=O)NC2CCCCC2)cc1` is listed with activity change, negative = inhibition: inactive: -15%
`CCCCNC(=O)CSc1nc2ccccc2c(=O)n1CCNC(C)=O` is listed with Potency: inconclusive: 2.31 µM [inhibitor, single point]
